The campaign covered roughly 410,000 compounds. About 18,000 (4.4%) were called active. The inconclusive results got no clear call from the source; some entries with a clear call stand among them for comparison. Rule as the data show it: active = activity change below about -60%; inconclusive = no clear call, values can overlap the other calls; inactive = above about -39%.
Assay: qHTS Assay for inhibitors of the human cytomegalovirus (HCMV)
Details: HFF cells, HCMV-luciferase reporter, 72 h; at 57.5 µM; hits give low values
How it was run: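 Human foreskin fibroblasts infected with luciferase-reporter HCMV at MOI 1 PFU/cell, compounds at two doses. Luciferase measured 72 h post infection; normalized to buffer-only basal and Salinomycin (10uM) controls.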
% is scaled to controls: 0 for no effect and ±100 for the full control effect.

Question: With `CCc1cc(=O)oc2c(CN3CCN(C)CC3)c(O)ccc12` as the molecule, how does the activity change, negative = inhibition read?
Answer: Its activity change, negative = inhibition is inactive: 20.2%.

Question: Which activity change, negative = inhibition does the source give for `Cc1ccc(NC(=O)Cn2c(=O)n(Cc3nc(-c4ccccc4)no3)c(=O)c3ccccc32)c(C)c1` here?
Answer: Its activity change, negative = inhibition is inactive: 16.2%.

Question: Which activity change, negative = inhibition does the source give for `O=C(O/N=C\c1ccc(N2CCCCC2)c([N+](=O)[O-])c1)c1cccc(C(F)(F)F)c1` here?
Answer: The activity change, negative = inhibition was inconclusive: -46.6%.

Question: For `C/C(=N\NC(=O)c1c(Br)cnn1C)c1ccc(NC(=O)c2ccc(F)cc2)cc1`, which activity change, negative = inhibition is on record?
Answer: The activity change, negative = inhibition was inconclusive: -49.4%.

Question: With `CCOC(=O)c1sc(=S)n(-c2ccccc2OC)c1N` as the molecule, how does the activity change, negative = inhibition read?
Answer: The activity change, negative = inhibition was inactive: 76.6%.

Question: Which activity change, negative = inhibition does the source give for `CCN(C(=O)CN1C(=O)c2ccccc2Sc2ccc(C(=O)OC)cc21)c1cccc(C)c1` here?
Answer: The activity change, negative = inhibition was inactive: 128%.

Question: For `CCC(C)[C@H](NC(=O)NCCC1=CCCCC1)C(=O)O` (some centres undefined), which activity change, negative = inhibition is on record?
Answer: Its activity change, negative = inhibition is inconclusive: -40.1%.

Question: Which activity change, negative = inhibition does the source give for `CCCNC(=O)c1ccc2c(c1)N=C(CCC)c1ccccc1S2` here?
Answer: The activity change, negative = inhibition was active: -86.1%.

Question: With `NC(=O)c1nn(-c2ccccc2)nc1NC(=O)CN1CCCC1` as the molecule, how does the activity change, negative = inhibition read?
Answer: Its activity change, negative = inhibition is inconclusive: -46.9%.

Question: For `COc1ccccc1Oc1cc(C#N)c(C#N)cc1-n1nnc2ccccc21`, which activity change, negative = inhibition is on record?
Answer: The activity change, negative = inhibition was active: -91.8%.

Question: With `Cc1cccc(C(=O)N(C(=O)c2cccc(C)c2)N(C)C)c1` as the molecule, how does the activity change, negative = inhibition read?
Answer: Its activity change, negative = inhibition is inactive: 8.8%.

Question: For `Cc1ccc(N=c2oc3cc(O)ccc3cc2C(N)=O)cc1`, which activity change, negative = inhibition is on record?
Answer: The activity change, negative = inhibition was active: -79.9%.

Question: For `CCOC(=O)C1=C(C)NC(=S)N(C=O)C1c1ccccc1` (centres undefined), which activity change, negative = inhibition is on record?
Answer: The activity change, negative = inhibition was inconclusive: -51.8%.

Question: Which activity change, negative = inhibition does the source give for `CN1CCN(c2ccc(NC(=O)c3cccc(OCc4ccccc4)c3)cc2)CC1` here?
Answer: The activity change, negative = inhibition was inactive: 91.6%.

Question: For `Clc1ccc(C2=Nn3c(nnc3-c3n[nH]c4c3CCC4)SC2)cc1Cl`, which activity change, negative = inhibition is on record?
Answer: The activity change, negative = inhibition was inconclusive: -55.7%.

Question: For `COc1ccc2[nH]cc(C=O)c2c1`, which activity change, negative = inhibition is on record?
Answer: Its activity change, negative = inhibition is inactive: -25.1%.

Question: With `C[C@H](O)[C@@H]1CN2CCc3c([nH]c4ccc(-c5ccc6c(c5)OCO6)cc34)[C@@H]2C[C@@H]1N(C)C(=O)NC1CCCCC1` as the molecule, how does the activity change, negative = inhibition read?
Answer: Its activity change, negative = inhibition is active: -86.2%.

Question: Which activity change, negative = inhibition does the source give for `CN1CCN(NC(=O)Nc2cccc(F)c2)CC1` here?
Answer: Its activity change, negative = inhibition is inactive: -39.6%.

Question: For `Cn1nc(C(F)(F)F)c(/C=N/OC(=O)c2ccc(Cl)cc2)c1Cl`, which activity change, negative = inhibition is on record?
Answer: The activity change, negative = inhibition was inactive: -8.2%.

Question: Which activity change, negative = inhibition does the source give for `COc1ccc(Br)cc1-c1noc(-c2ccccc2F)n1` here?
Answer: The activity change, negative = inhibition was inactive: 13.6%.

Question: Which activity change, negative = inhibition does the source give for `N#Cc1c(N)nc2c(c1-c1ccc3c(c1)OCO3)CCCCCC2` here?
Answer: The activity change, negative = inhibition was inconclusive: -52.4%.

Question: With `O=C(Nc1ccc(Cl)cc1)C1CCN(C(=O)c2cccs2)CC1` as the molecule, how does the activity change, negative = inhibition read?
Answer: Its activity change, negative = inhibition is inactive: -7.93%.

Question: For `CC(=O)c1ccc(OCC(O)CN2CCN(S(=O)(=O)c3cccc(Br)c3)CC2)cc1` (centres undefined), which activity change, negative = inhibition is on record?
Answer: The activity change, negative = inhibition was inconclusive: -40.8%.

Question: Which activity change, negative = inhibition does the source give for `NC(=O)C1C(c2ccccc2)=C1c1ccccc1` here?
Answer: The activity change, negative = inhibition was inconclusive: -58.5%.

Question: For `CCN(CC)CCCNC(CC(=O)Nc1cccc([N+](=O)[O-])c1)C(=O)O` (centres undefined), which activity change, negative = inhibition is on record?
Answer: Its activity change, negative = inhibition is inconclusive: -42.9%.

Question: For `Cn1c(=O)c2c(ncn2CCOc2ccc(Br)cc2)n(C)c1=O`, which activity change, negative = inhibition is on record?
Answer: The activity change, negative = inhibition was inconclusive: -42.7%.

Question: Which activity change, negative = inhibition does the source give for `COC(=O)c1c(-c2ccc(C)cc2)csc1NC(=O)Cc1ccc(OC)c(OC)c1` here?
Answer: The activity change, negative = inhibition was active: -65.3%.

Question: For `O=C(Cn1cc([N+](=O)[O-])cn1)NCCc1c[nH]c2ccccc12`, which activity change, negative = inhibition is on record?
Answer: Its activity change, negative = inhibition is inconclusive: -42.5%.

Question: With `Cc1ccc(/C=C(\C#N)C(=O)NC(C)C)o1` as the molecule, how does the activity change, negative = inhibition read?
Answer: Its activity change, negative = inhibition is inconclusive: -44.9%.

Question: For `Cn1cccc/c1=N\c1cccc[n+]1C`, which activity change, negative = inhibition is on record?
Answer: The activity change, negative = inhibition was active: -73.5%.

Question: Which activity change, negative = inhibition does the source give for `O=C1c2cccc3cccc(c23)C(=O)N1CCN1CCN(C(=S)Nc2ccccc2)CC1` here?
Answer: The activity change, negative = inhibition was inactive: -34%.

Question: With `O=C(NC(=S)Nc1ccc(Oc2ccc(Cl)cc2)cc1)c1ccccc1` as the molecule, how does the activity change, negative = inhibition read?
Answer: Its activity change, negative = inhibition is active: -87%.

Question: Which activity change, negative = inhibition does the source give for `c1ccc(-c2noc(CSc3nc4ccccc4o3)n2)cc1` here?
Answer: Its activity change, negative = inhibition is inactive: -10.9%.

Question: For `CCOC(=O)C1C(c2ccc(C(=O)O)cc2)NC(=O)NC1(O)C(F)(F)F` (centres undefined), which activity change, negative = inhibition is on record?
Answer: Its activity change, negative = inhibition is active: -71.8%.

Question: Which activity change, negative = inhibition does the source give for `COc1ccc(CNCc2ccc(F)cc2)c(OC)c1` here?
Answer: The activity change, negative = inhibition was inconclusive: -42.6%.

Question: Which activity change, negative = inhibition does the source give for `O=C(C1CC(=O)N(c2ccc(F)cc2)C1)N1CCC(c2nc3ccccc3[nH]2)CC1` (centres undefined) here?
Answer: The activity change, negative = inhibition was inactive: -20.9%.

Question: For `Cc1ccc(/C=[N+](\[O-])c2ccccc2C)o1`, which activity change, negative = inhibition is on record?
Answer: Its activity change, negative = inhibition is active: -98%.

Question: For `CN(C)CCN(CC1CCCN(Cc2ccccc2F)C1)C(=O)c1ccc(F)cc1` (centres undefined), which activity change, negative = inhibition is on record?
Answer: The activity change, negative = inhibition was inactive: -22.9%.

Question: Which activity change, negative = inhibition does the source give for `C/C(CC(=O)Nc1ccc2c(c1)OCCO2)=N\NC(=O)C(=O)Nc1ccccc1C` here?
Answer: The activity change, negative = inhibition was inconclusive: -43.1%.

Question: Which activity change, negative = inhibition does the source give for `c1ccc(-c2nn[nH]n2)nc1` here?
Answer: The activity change, negative = inhibition was inactive: 32%.

Question: With `Cc1cccc(Cc2nnc(CCC(=O)N(C)C3CCOC3)o2)c1` (centres undefined) as the molecule, how does the activity change, negative = inhibition read?
Answer: The activity change, negative = inhibition was active: -70.2%.

Question: Which activity change, negative = inhibition does the source give for `COc1ccccc1NCCC(=O)OCC(=O)NC1CCCC(C)C1C` (centres undefined) here?
Answer: Its activity change, negative = inhibition is inconclusive: -48.5%.

Question: With `CCOc1ccccc1N1CCN(C(=O)C2c3ccccc3Oc3ccccc32)CC1` as the molecule, how does the activity change, negative = inhibition read?
Answer: Its activity change, negative = inhibition is inactive: -17.3%.

Question: Which activity change, negative = inhibition does the source give for `O=C(Nc1cc(Cl)ccc1Cl)c1ccc2c(c1)N(Cc1cccc(Cl)c1)C(=O)c1ccccc1S2=O` (centres undefined) here?
Answer: Its activity change, negative = inhibition is inactive: 8.9%.

— PubChem BioAssay AID1259415 (National Center for Advancing Translational Sciences (NCATS), 2018)
